{"source": "PubChem BioAssay AID720710 – VTT Finland | 2013", "assay": "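Knock-downs that leave cyclin E-high cells sensitive to replication stress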 (primary screen)", "cells": "human U-2 OS bone cancer cells, parental and a cyclin E (CCNE1) overexpressing line", "reagents": "single siRNA against human genes, 1 µM siRNA in the printed spot mix", "duration": "67 h", "conditions": "half the arrays: hydroxyurea 2 mM for 16 h, then 3 h recovery; other arrays untreated", "read-out": "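DNA synthesis measured as imaged EdU uptake per nucleus (DAPI) at 67 h, normalised to subgrid median and given as z-score versus non-targeting controls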", "direction": "EdU z-score, cyclin E line, hydroxyurea and EdU z-score, parental, hydroxyurea: higher = more DNA synthesis than non-targeting controls", "note": "Here is an unselected part of about 1,380 deposited reagents. 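One array per condition without replicates; hydroxyurea arrays received 2 mM for 16 h plus 3 h recovery.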 Reagents against one gene are numbered here. Not all columns of the deposit are shown. Reagent sequences are not shown."}
{"gene": "KMT5A (GeneID 387893)", "siRNA no.": 1, "EdU z-score, cyclin E line, hydroxyurea": -0.428, "EdU z-score, parental, hydroxyurea": 1.23}
{"gene": "KMT5A (GeneID 387893)", "siRNA no.": 2, "EdU z-score, cyclin E line, hydroxyurea": 0.24, "EdU z-score, parental, hydroxyurea": 2.61}
{"gene": "HDAC2 (GeneID 3066)", "siRNA no.": 1, "EdU z-score, cyclin E line, hydroxyurea": -2.59, "EdU z-score, parental, hydroxyurea": 0.886}
{"gene": "HDAC2 (GeneID 3066)", "siRNA no.": 2, "EdU z-score, cyclin E line, hydroxyurea": 1.08, "EdU z-score, parental, hydroxyurea": 1.17}
{"gene": "RBBP7 (GeneID 5931)", "siRNA no.": 1, "EdU z-score, cyclin E line, hydroxyurea": -0.825, "EdU z-score, parental, hydroxyurea": -1.73}
{"gene": "RBBP7 (GeneID 5931)", "siRNA no.": 2, "EdU z-score, cyclin E line, hydroxyurea": 0.583, "EdU z-score, parental, hydroxyurea": 2.28}
{"gene": "LIG3 (GeneID 3980)", "siRNA no.": 1, "EdU z-score, cyclin E line, hydroxyurea": -0.611, "EdU z-score, parental, hydroxyurea": -0.645}
{"gene": "LIG3 (GeneID 3980)", "siRNA no.": 2, "EdU z-score, cyclin E line, hydroxyurea": -0.204, "EdU z-score, parental, hydroxyurea": 0.133}
{"gene": "SETDB2 (GeneID 83852)", "siRNA no.": 1, "EdU z-score, cyclin E line, hydroxyurea": -0.184, "EdU z-score, parental, hydroxyurea": -0.243}
{"gene": "SETDB2 (GeneID 83852)", "siRNA no.": 2, "EdU z-score, cyclin E line, hydroxyurea": 2.53, "EdU z-score, parental, hydroxyurea": 3.53}
{"gene": "PGBD3 (GeneID 267004)", "siRNA no.": 1, "EdU z-score, cyclin E line, hydroxyurea": -0.672, "EdU z-score, parental, hydroxyurea": 1.41}
{"gene": "PGBD3 (GeneID 267004)", "siRNA no.": 2, "EdU z-score, cyclin E line, hydroxyurea": 0.329, "EdU z-score, parental, hydroxyurea": 2.05}
{"gene": "MCM3 (GeneID 4172)", "siRNA no.": 1, "EdU z-score, cyclin E line, hydroxyurea": -0.978, "EdU z-score, parental, hydroxyurea": -1.77}
{"gene": "MCM3 (GeneID 4172)", "siRNA no.": 2, "EdU z-score, cyclin E line, hydroxyurea": 0.539, "EdU z-score, parental, hydroxyurea": -1.3}
{"gene": "MTA2 (GeneID 9219)", "siRNA no.": 1, "EdU z-score, cyclin E line, hydroxyurea": -2.86, "EdU z-score, parental, hydroxyurea": -1.55}
{"gene": "MTA2 (GeneID 9219)", "siRNA no.": 2, "EdU z-score, cyclin E line, hydroxyurea": -0.0689, "EdU z-score, parental, hydroxyurea": -1.07}
{"gene": "SP8 (GeneID 221833)", "siRNA no.": 1, "EdU z-score, cyclin E line, hydroxyurea": 0.975, "EdU z-score, parental, hydroxyurea": -2.9}
{"gene": "SP8 (GeneID 221833)", "siRNA no.": 2, "EdU z-score, cyclin E line, hydroxyurea": 1.53, "EdU z-score, parental, hydroxyurea": 2.76}
{"gene": "CHAF1A (GeneID 10036)", "siRNA no.": 1, "EdU z-score, cyclin E line, hydroxyurea": 0.231, "EdU z-score, parental, hydroxyurea": -1.25}
{"gene": "CHAF1A (GeneID 10036)", "siRNA no.": 2, "EdU z-score, cyclin E line, hydroxyurea": 0.856, "EdU z-score, parental, hydroxyurea": 1.38}
{"gene": "LOC648152", "siRNA no.": 1, "EdU z-score, cyclin E line, hydroxyurea": -0.219, "EdU z-score, parental, hydroxyurea": -1.83}
{"gene": "LOC648152", "siRNA no.": 2, "EdU z-score, cyclin E line, hydroxyurea": -0.155, "EdU z-score, parental, hydroxyurea": 1.14}
{"gene": "NAP1L1 (GeneID 4673)", "siRNA no.": 1, "EdU z-score, cyclin E line, hydroxyurea": 0.103, "EdU z-score, parental, hydroxyurea": -1.88}
{"gene": "NAP1L1 (GeneID 4673)", "siRNA no.": 2, "EdU z-score, cyclin E line, hydroxyurea": 0.69, "EdU z-score, parental, hydroxyurea": 1.74}
{"gene": "CCNH (GeneID 902)", "siRNA no.": 1, "EdU z-score, cyclin E line, hydroxyurea": -0.537, "EdU z-score, parental, hydroxyurea": 0.00312}
{"gene": "CCNH (GeneID 902)", "siRNA no.": 2, "EdU z-score, cyclin E line, hydroxyurea": 0.115, "EdU z-score, parental, hydroxyurea": 0.712}

6 entries already listed, ordered by “EdU z-score, parental, hydroxyurea”, lowest first.
{"gene": "RBBP7 (GeneID 5931)", "siRNA no.": 1, "EdU z-score, cyclin E line, hydroxyurea": -0.825, "EdU z-score, parental, hydroxyurea": -1.73}
{"gene": "LIG3 (GeneID 3980)", "siRNA no.": 1, "EdU z-score, cyclin E line, hydroxyurea": -0.611, "EdU z-score, parental, hydroxyurea": -0.645}
{"gene": "SETDB2 (GeneID 83852)", "siRNA no.": 1, "EdU z-score, cyclin E line, hydroxyurea": -0.184, "EdU z-score, parental, hydroxyurea": -0.243}
{"gene": "LIG3 (GeneID 3980)", "siRNA no.": 2, "EdU z-score, cyclin E line, hydroxyurea": -0.204, "EdU z-score, parental, hydroxyurea": 0.133}
{"gene": "RBBP7 (GeneID 5931)", "siRNA no.": 2, "EdU z-score, cyclin E line, hydroxyurea": 0.583, "EdU z-score, parental, hydroxyurea": 2.28}
{"gene": "SETDB2 (GeneID 83852)", "siRNA no.": 2, "EdU z-score, cyclin E line, hydroxyurea": 2.53, "EdU z-score, parental, hydroxyurea": 3.53}

Additional records follow:
{"gene": "H2AX (GeneID 3014)", "siRNA no.": 1, "EdU z-score, cyclin E line, hydroxyurea": 0.654, "EdU z-score, parental, hydroxyurea": -6.26}
{"gene": "H2AX (GeneID 3014)", "siRNA no.": 2, "EdU z-score, cyclin E line, hydroxyurea": 2.04, "EdU z-score, parental, hydroxyurea": -0.195}
{"gene": "HIRA (GeneID 7290)", "siRNA no.": 1, "EdU z-score, cyclin E line, hydroxyurea": -1.84, "EdU z-score, parental, hydroxyurea": -2.38}
{"gene": "HIRA (GeneID 7290)", "siRNA no.": 2, "EdU z-score, cyclin E line, hydroxyurea": 0.261, "EdU z-score, parental, hydroxyurea": 2.78}
{"gene": "ORC4 (GeneID 5000)", "siRNA no.": 1, "EdU z-score, cyclin E line, hydroxyurea": -0.874, "EdU z-score, parental, hydroxyurea": -5.13}
{"gene": "ORC4 (GeneID 5000)", "siRNA no.": 2, "EdU z-score, cyclin E line, hydroxyurea": -0.292, "EdU z-score, parental, hydroxyurea": -0.101}
{"gene": "ESCO1 (GeneID 114799)", "siRNA no.": 1, "EdU z-score, cyclin E line, hydroxyurea": -0.937, "EdU z-score, parental, hydroxyurea": 0.00596}
{"gene": "ESCO1 (GeneID 114799)", "siRNA no.": 2, "EdU z-score, cyclin E line, hydroxyurea": 1.87, "EdU z-score, parental, hydroxyurea": 3.24}
{"gene": "NBN (GeneID 4683)", "siRNA no.": 1, "EdU z-score, cyclin E line, hydroxyurea": -2.15, "EdU z-score, parental, hydroxyurea": -0.187}
{"gene": "NBN (GeneID 4683)", "siRNA no.": 2, "EdU z-score, cyclin E line, hydroxyurea": -1.96, "EdU z-score, parental, hydroxyurea": 1.31}
{"gene": "TNP1 (GeneID 7141)", "siRNA no.": 1, "EdU z-score, cyclin E line, hydroxyurea": -1.99, "EdU z-score, parental, hydroxyurea": -0.974}
{"gene": "TNP1 (GeneID 7141)", "siRNA no.": 2, "EdU z-score, cyclin E line, hydroxyurea": -0.278, "EdU z-score, parental, hydroxyurea": -0.244}
{"gene": "POLI (GeneID 11201)", "siRNA no.": 1, "EdU z-score, cyclin E line, hydroxyurea": -1.03, "EdU z-score, parental, hydroxyurea": 0.419}
{"gene": "POLI (GeneID 11201)", "siRNA no.": 2, "EdU z-score, cyclin E line, hydroxyurea": -0.781, "EdU z-score, parental, hydroxyurea": 4.98}
